# Measurements taken from PubChem BioAssay (EPA / NIEHS).
# Protein sequences, listed by entry. Tags and fused reporters are not part of them. Lines headed by an entry give the natural chain unless they say otherwise; changes in a name come on top.
# UniProt Q9UNQ0: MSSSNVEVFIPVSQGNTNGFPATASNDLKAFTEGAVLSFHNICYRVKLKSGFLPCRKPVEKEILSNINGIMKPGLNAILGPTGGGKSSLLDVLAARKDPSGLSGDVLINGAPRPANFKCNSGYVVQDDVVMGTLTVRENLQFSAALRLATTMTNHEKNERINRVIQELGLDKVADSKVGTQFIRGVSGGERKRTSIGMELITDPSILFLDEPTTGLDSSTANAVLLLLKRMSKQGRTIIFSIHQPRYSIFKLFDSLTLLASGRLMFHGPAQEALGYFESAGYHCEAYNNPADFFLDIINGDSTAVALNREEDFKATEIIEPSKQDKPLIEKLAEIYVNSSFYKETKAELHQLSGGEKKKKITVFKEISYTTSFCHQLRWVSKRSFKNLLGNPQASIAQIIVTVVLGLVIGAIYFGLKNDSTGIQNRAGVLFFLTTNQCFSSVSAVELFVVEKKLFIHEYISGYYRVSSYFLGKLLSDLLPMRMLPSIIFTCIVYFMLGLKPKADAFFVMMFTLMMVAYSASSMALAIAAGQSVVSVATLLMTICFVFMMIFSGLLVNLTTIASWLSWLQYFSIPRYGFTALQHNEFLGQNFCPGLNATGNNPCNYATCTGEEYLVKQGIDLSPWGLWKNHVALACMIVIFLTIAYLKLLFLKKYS
# UniProt P10275: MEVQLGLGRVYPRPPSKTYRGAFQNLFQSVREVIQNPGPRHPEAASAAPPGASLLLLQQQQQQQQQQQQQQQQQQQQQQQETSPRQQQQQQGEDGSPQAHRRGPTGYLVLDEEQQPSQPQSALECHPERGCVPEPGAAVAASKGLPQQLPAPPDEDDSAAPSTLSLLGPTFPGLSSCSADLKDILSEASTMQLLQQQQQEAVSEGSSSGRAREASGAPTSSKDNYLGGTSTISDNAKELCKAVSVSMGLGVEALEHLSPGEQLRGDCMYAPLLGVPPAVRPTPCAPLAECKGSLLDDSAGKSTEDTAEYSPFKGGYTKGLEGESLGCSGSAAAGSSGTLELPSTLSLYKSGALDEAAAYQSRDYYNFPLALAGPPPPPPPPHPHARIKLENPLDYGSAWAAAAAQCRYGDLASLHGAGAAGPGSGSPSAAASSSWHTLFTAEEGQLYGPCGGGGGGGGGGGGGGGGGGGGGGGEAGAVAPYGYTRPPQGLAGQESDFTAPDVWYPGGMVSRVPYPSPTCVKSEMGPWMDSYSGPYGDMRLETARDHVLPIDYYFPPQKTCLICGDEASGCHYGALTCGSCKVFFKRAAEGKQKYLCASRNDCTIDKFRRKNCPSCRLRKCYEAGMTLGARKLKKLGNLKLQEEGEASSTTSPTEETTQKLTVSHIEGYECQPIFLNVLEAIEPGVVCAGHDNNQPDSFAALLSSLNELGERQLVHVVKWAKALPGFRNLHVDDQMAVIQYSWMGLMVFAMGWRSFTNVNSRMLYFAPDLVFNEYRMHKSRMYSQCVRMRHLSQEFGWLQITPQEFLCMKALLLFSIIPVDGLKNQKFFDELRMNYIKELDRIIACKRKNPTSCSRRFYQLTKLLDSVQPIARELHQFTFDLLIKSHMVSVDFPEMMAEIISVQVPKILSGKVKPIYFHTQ
# UniProt Q96RI1: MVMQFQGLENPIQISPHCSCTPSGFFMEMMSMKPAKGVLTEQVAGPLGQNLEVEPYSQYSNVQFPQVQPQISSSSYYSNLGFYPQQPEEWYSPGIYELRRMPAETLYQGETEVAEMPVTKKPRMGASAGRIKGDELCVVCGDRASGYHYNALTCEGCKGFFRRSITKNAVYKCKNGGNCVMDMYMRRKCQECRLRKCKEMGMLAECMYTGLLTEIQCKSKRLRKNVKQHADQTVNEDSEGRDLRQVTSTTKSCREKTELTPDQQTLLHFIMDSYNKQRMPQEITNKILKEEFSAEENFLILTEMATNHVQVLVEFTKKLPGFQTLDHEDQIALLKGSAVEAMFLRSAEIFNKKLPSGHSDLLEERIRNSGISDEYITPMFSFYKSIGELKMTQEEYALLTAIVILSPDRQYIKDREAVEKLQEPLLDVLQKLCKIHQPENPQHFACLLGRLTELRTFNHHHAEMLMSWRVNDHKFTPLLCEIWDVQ
# Values joined by “and” are separate entries in the source; they are usually repeats but may differ in a detail not shown here. Identical values can stand only once. The shares of active, inactive and inconclusive entries below differ from those in the screen. Potencies of inconclusive entries are doubtful fits and often do not repeat. Active and inactive are the calls of the source. The calls were made as follows: active = hit-call score of the fitted dose curve at least 0.9, where 1 is the maximum; inconclusive = response in the unintended direction; inactive = score below 0.9.
# Legend:
# [1] = Tanguay_ZF_120hpf_AXIS_legacy: (Legacy) Oregon State University Tanguay Lab 120 Hour Post-fertilization zebrafish Assay for Body Axis Malformation (AID 2283635);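 as to AC50: potency for an increased fraction of larvae scored with body axis malformation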
# Procedure, shortened: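 Each dechorionated embryo was exposed alone from 6 hpf, with DMSO at 0.64% (vol/vol) and trimethyltin chloride 5 uM as positive control. Axis malformation was recorded at 120 hpf unless the embryo had died.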
# [2] = Tanguay_ZF_120hpf_TRUN_legacy: (Legacy) Oregon State University Tanguay Lab 120 Hour Post-fertilization zebrafish Assay for Truncated Body (AID 2283655)
# Procedure, shortened: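 Single dechorionated zebrafish embryos received test chemical from 6 hpf in 0.64% DMSO, kept at 28C. At 120 hpf, brightfield inspection noted any truncated body.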
# [3] = read-out: Broad substrate specificity ATP-binding cassette transporter ABCG2 (Homo sapiens) (UniProt Q9UNQ0); assay: CLD_ABCG2_6hr: CellzDirect (CLD) Gene Expression Assay for ABC Transporter (ABCG2) at 6 hours (AID 2283660)
# Procedure, shortened: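 ABCG2 mRNA induction measured by qNPA chemiluminescence in human primary hepatocyte cultures, 6 h post-dose. Chemicals tested at several concentrations against a 0.2% DMSO vehicle; positive-direction fit relative to DMSO.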
# [4] = read-out: xenobiotic metabolism (CYP2C9), CYP2C9 (gene 1559); assay: CLD_CYP2C9_6hr: CellzDirect (CLD) Gene Expression Assay for xenobiotic metabolism (CYP2C9) at 6 hours (AID 2283664)
# Procedure, shortened: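 Readout is qNPA chemiluminescence of CYP2C9 mRNA, taken 6 h after dosing of cultured human liver primary cells at several concentrations. Activity is the increase over 0.2% DMSO baseline. Morphology-based cytotoxicity flagged yes/no.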
# [5] = CLD_ACTIN_48hr: CellzDirect (CLD) Gene Expression Assay for Baseline Control (Actin) at 48 hours (AID 2283702)
# Procedure, shortened: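 Background-control actin mRNA read by qNPA chemiluminescence at 48 h. Human hepatocyte cultures from two donors received fresh multi-concentration chemical doses daily for two days; 0.2% DMSO served as vehicle baseline.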
# [6] = read-out: sulfotransferase (SULT2A), SULT2A1 (gene 6822); assay: CLD_SULT2A_48hr: CellzDirect (CLD) Gene Expression Assay for sulfotransferase (SULT2A) at 48 hours (AID 2283710);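 also: hits raise SULT2A1 transcript above the 0.2% DMSO vehicle baseline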
# Procedure, shortened: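 SULT2A1 transcript measured by qNPA chemiluminescence in human primary hepatocyte cultures after 48 h, with fresh dosing solutions on two consecutive days; gain-of-signal fitting against 0.2% DMSO vehicle; cytotoxicity annotated from phase-contrast morphology.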
# [7] = test system: turtle Androgen Receptor (AR), gene 101947425; assay: ATG_trAR_XSP2: Attagene TRANS-FACTORIAL Multi-Species (XSP2) HepG2 Assay for turtle Androgen Receptor (AR) (AID 2283815);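 also: reporter mRNA from a Gal4 chimera of turtle AR measured by RT-PCR; potency for gain of reporter signal meaning activation above DMSO baseline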
# Procedure, shortened: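 Reporter transcripts were quantified via RT-PCR and capillary electrophoresis and fitted upward against DMSO. Transiently transfected human HepG2 cells carrying NR-Gal4 chimeras were exposed 24 h, with 3 nM 6-alpha-fluorotestosterone plus 1.5 nM norgestrel added.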
# [8] = target: Androgen receptor (Homo sapiens) (UniProt P10275); assay: ATG_AR_TRANS: Attagene TRANS-FACTORIAL HepG2 Assay for human Androgen Receptor (AR) (AID 2282973); conditions: HepG2 Attagene TRANS-FACTORIAL AR reporter transcription
# Procedure, shortened: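 Chimeric nuclear receptor–Gal4 activity was assessed in human HepG2 hepatocytes after 24 h chemical dosing. Induced reporter mRNA was detected via labelled RT-PCR fragments on capillary electrophoresis, and gain of signal was analysed against DMSO.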
# [9] = read-out: ABC Transporter (ABCB1), ABCB1 (gene 5243); assay: CLD_ABCB1_6hr: CellzDirect (CLD) Gene Expression Assay for ABC Transporter (ABCB1) at 6 hours (AID 2283659);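 as to outcome: hits raise ABCB1 transcript above the DMSO vehicle baseline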
# Procedure, shortened: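 ABCB1 transcript measured by quantitative nuclease protection assay, chemiluminescent read-out, 6 h after dosing human hepatocyte cultures (0.2% DMSO vehicle, daily redosing). Activity fitted as increase over DMSO baseline; cytotoxicity flagged by phase-contrast morphology.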
# [10] = read-out: ABC Transporter (ABCB1), ABCB1 (gene 5243); assay: CLD_ABCB1_24hr: CellzDirect (CLD) Gene Expression Assay for ABC Transporter (ABCB1) at 24 hours (AID 2283684);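 as to AC50: potency for increase in ABCB1 mRNA relative to DMSO vehicle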
# Procedure, shortened: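 ABCB1 mRNA induction versus 0.2% DMSO vehicle was read by qNPA chemiluminescence at 24 h. Cultured human hepatocytes from two donor preparations received daily fresh dosing, and phase-contrast cytotoxicity calls were annotated alongside the data.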
# [11] = read-out: ABC Transporter (ABCB1), ABCB1 (gene 5243); assay: CLD_ABCB1_48hr: CellzDirect (CLD) Gene Expression Assay for ABC Transporter (ABCB1) at 48 hours (AID 2283695);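 as to AC50: potency for induction meaning increase of mRNA over DMSO vehicle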
# Procedure, shortened: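 ABCB1 mRNA was measured by quantitative nuclease protection assay (chemiluminescence) 48 h after dosing. Human hepatocyte cultures from two separate donors received fresh dosing solutions daily for two days, with 0.2% DMSO as vehicle. Positive-direction fit against DMSO.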
# [12] = read-out: xenobiotic metabolism (CYP1A1), CYP1A1 (gene 1543); assay: CLD_CYP1A1_48hr: CellzDirect (CLD) Gene Expression Assay for xenobiotic metabolism (CYP1A1) at 48 hours (AID 2283705)
# Procedure, shortened: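 CYP1A1 transcript measured by quantitative nuclease protection (chemiluminescent) 48 h after two daily treatments of human hepatocyte cultures, versus 0.2% DMSO. Morphology-based cytotoxicity flags accompany data; two donor preparations used.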
# AR (gene 367) = AR (gene 367) (UniProt P10275); assay: ACEA_AR_agonist_80hr: ACEA Biosciences xCELLigence Real-Time Cell Analysis on Androgen Receptor Agonism for Proliferation (AID 2283783);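 also: hits increase impedance growth signal above DMSO baseline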
# Procedure, shortened: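 Eight concentrations, 1:4 serial dilution from a 100 uM final top, in biological duplicate. Impedance-based real-time growth of 22Rv1 cells after overnight baseline, recorded hourly and read at 80 hours. Controls: testosterone, MG132, assay media.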
# [13] = target: Nucleoli Translocation, AR (gene 367) (UniProt P10275); assay: UPITT_HCI_U2OS_AR_TIF2_Nucleoli_Agonist: University of Pittsburgh U2OS Androgen Receptor-Transcriptional Intermediary Factor 2 (AR-TIF2) Agonism High Content Imaging Assay for Nucleoli Translocation (AID 2283998)
# Procedure, shortened: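 High-content images quantify nucleolar accumulation of RFP-fused AR in cells also expressing GFP-TIF2; the endpoint is fitted as signal gain versus DMSO controls across final concentrations of 0.195 to 50 uM.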
# [14] = target: Bile acid receptor (Homo sapiens) (UniProt Q96RI1); assay: OT_FXR_FXRSRC1_0480: Odyssey Thera (OT) 8-hour HEK293T Protein-Complementation Assay for Farnesoid X receptor/SRC-1 Co-activator (AID 2283383)
# Procedure, shortened: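 Binding of FXR to coactivator SRC-1 was read as fluorescence from a reconstituted split reporter in HEK293T cells, 8 h after chemical addition. Only increases in signal versus DMSO were fit.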
# [15] = Tanguay_ZF_120hpf_SOMI_legacy: (Legacy) Oregon State University Tanguay Lab 120 Hour Post-fertilization zebrafish Assay for Somite Malformation (AID 2283647)
# Procedure, shortened: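 Somitogenesis defects are recorded as binary calls in whole larvae at 120 hpf after continuous static chemical exposure starting at 6 hpf in dechorionated 5D embryos. DMSO serves as negative control and baseline.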
# [16] = ACEA_AR_agonist_AUC_viability: ACEA Biosciences xCELLigence Real-Time Cell Analysis on Androgen Receptor Agonism for Viability (AID 2283775);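 as to AC50: viability read 80 hours after compound addition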
# Procedure, shortened: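 22Rv1 cells; impedance growth kinetics; 8-pt 1:4 dilutions from 100 uM top final, ≤0.5% DMSO; n = 2; 80 h read; AUC viability, loss-of-signal vs DMSO.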
# [17] = Tanguay_ZF_120hpf_NC_legacy: (Legacy) Oregon State University Tanguay Lab 120 Hour Post-fertilization zebrafish Assay for Notochord and Tail Malformation (AID 2283656)
# Procedure, shortened: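 Binary scoring of notochord distortion by brightfield microscopy; embryos dying were not scored. Wild-type Tropical 5D embryos, chorion removed, exposed singly and statically from 6 to 120 hpf, 28C, sealed, 0.64% DMSO.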
# [18] = Tanguay_ZF_120hpf_CIRC_legacy: (Legacy) Oregon State University Tanguay Lab 120 Hour Post-fertilization zebrafish Assay for Circulatory Malformation (AID 2283651)
# Procedure, shortened: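 Binary circulatory malformation call at 120 hpf by brightfield imaging of zebrafish larvae; chorion removed at 4 hpf, static exposure from 6 hpf in sealed dark plates at 28C, final DMSO 0.64%; non-mortality endpoints skipped if embryo died.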
# [19] = target: Bile acid receptor (Homo sapiens) (UniProt Q96RI1); assay: OT_FXR_FXRSRC1_1440: Odyssey Thera (OT) 24-hour HEK293T Protein-Complementation Assay for Farnesoid X receptor/SRC-1 Co-activator (AID 2283384)
# Procedure, shortened: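 Protein-fragment complementation: FXR and SRC-1 fused to reporter fragments that reassemble on interaction, read by fluorescence intensity. Human HEK293T cells measured 24 h post-dose; positive-direction fit versus DMSO.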
smiles,measurement,setting,value
C#CC(C)(C)NC(=O)c1cc(Cl)cc(Cl)c1,outcome,[1],inactive
same,AC50,[2],inconclusive: 197 µM
same,outcome,[3],inactive
same,AC50,[4],inconclusive: 5.93 µM
same,AC50,[5],inconclusive: 0.743 µM
same,AC50,[6],active: 5.38 µM
same,AC50,[7],inconclusive: 100 µM
CN1COCN(Cc2cnc(Cl)s2)C1=N[N+](=O)[O-],AC50,[14],inconclusive: 50 µM
same,AC50,[15],inconclusive: 47.1 µM
same,outcome,[2],inactive
same,AC50,[10],inconclusive: 20 µM
same,AC50,[11],inconclusive: 20 µM
same,outcome,[5],inactive
same,AC50,[6],inconclusive: 0.0304 µM
same,AC50,[16],inconclusive: 50 µM
O=C(O)c1nc(Cl)ccc1Cl,outcome,[17],inactive
same,AC50,[9],inconclusive: 20 µM and inconclusive: 4.67 µM
same,AC50,[3],inconclusive: 4.9 µM and inconclusive: 0.527 nM
same,AC50,[10],inconclusive: 32.9 µM and inconclusive: 20 µM
same,AC50,[11],inconclusive: 37.8 µM and inconclusive: 10.1 µM
same,AC50,[12],active: 4.17 µM and inconclusive: 410 nM
CN(C)N=O,AC50,[14],inconclusive: 50 µM
same,AC50,[1],inconclusive: 50.3 µM
O=C(Nc1ccccc1)Nc1ccnc(Cl)c1,outcome,[8],inactive
same,AC50,[14],inconclusive: 88.4 µM
same,outcome,[17],inactive
same,AC50,[9],inconclusive: 20 µM
same,AC50,[4],inconclusive: 20 µM
same,AC50,[10],inconclusive: 20 µM
same,AC50,[11],inconclusive: 3.42 µM
same,AC50,[12],active: 10.8 µM
same,AC50,AR (gene 367),inconclusive: 50 µM
same,AC50,[13],active: 84.5 µM
CC(C)(C)OOC(C)(C)CCC(C)(C)OOC(C)(C)C,AC50,[1],inconclusive: 83.6 µM
same,AC50,[15],inconclusive: 181 µM
same,outcome,[17],inactive
CCCCOC(=O)c1ccccc1C(=O)O,outcome,[8],inactive
same,outcome,[19],inactive
same,AC50,[17],inconclusive: 29.4 µM
same,AC50,[11],inconclusive: 20 µM
same,AC50,[12],inconclusive: 0.0806 µM
same,AC50,AR (gene 367),inconclusive: 50 µM
O=C(O)c1cc(Oc2ccc(C(F)(F)F)cc2Cl)ccc1[N+](=O)[O-],outcome,[1],inactive
same,outcome,[4],inactive
same,outcome,[11],inactive
same,AC50,[5],inconclusive: 20 µM
same,AC50,[12],inconclusive: 20 µM
O=C=Nc1ccccc1,outcome,[16],inactive
COP(N)(=S)OC,outcome,[8],inactive
CC(C)C1(C)N=C(c2nc3ccccc3cc2C(=O)O)NC1=O (stereo unspecified),AC50,[1],inconclusive: 34 µM
same,AC50,[9],inconclusive: 20 µM
same,AC50,[3],inconclusive: 3.97 µM
same,AC50,[10],inconclusive: 20 µM
same,outcome,[12],inactive
same,AC50,[16],inconclusive: 50 µM
CCOc1nc(C(Cl)(Cl)Cl)ns1,AC50,[18],inconclusive: 34.6 µM
same,AC50,[17],inconclusive: 92.9 µM
same,AC50,[11],inconclusive: 20 µM
same,outcome,[5],inactive
same,AC50,[6],inconclusive: 20 µM
Clc1ccc(C(c2ccc(Cl)cc2)C(Cl)(Cl)Cl)cc1,outcome,[2],inactive
same,AC50,[16],active: 8.63 µM
same,AC50,[7],inconclusive: 100 µM
ClC1=C(Cl)[C@]2(Cl)[C@@H]3[C@H]4C[C@H]([C@@H]5O[C@H]45)[C@@H]3[C@@]1(Cl)C2(Cl)Cl,AC50,[15],active: 65.6 µM
same,AC50,[16],active: 24.1 µM
CCCCN(CCCC)N=O,AC50,[19],inconclusive: 50 µM
same,AC50,[18],inconclusive: 38.6 µM
same,AC50,[17],inconclusive: 0.00064 µM
same,outcome,[16],inactive
